Data published in the supplement of paper PMC10849652.
This is one part of the list.

Chains of the proteins cited; added tags and fusions are not shown. Lines headed by an entry give the natural chain unless they say otherwise; changes in a name come on top.
UniProt Q6KCM7: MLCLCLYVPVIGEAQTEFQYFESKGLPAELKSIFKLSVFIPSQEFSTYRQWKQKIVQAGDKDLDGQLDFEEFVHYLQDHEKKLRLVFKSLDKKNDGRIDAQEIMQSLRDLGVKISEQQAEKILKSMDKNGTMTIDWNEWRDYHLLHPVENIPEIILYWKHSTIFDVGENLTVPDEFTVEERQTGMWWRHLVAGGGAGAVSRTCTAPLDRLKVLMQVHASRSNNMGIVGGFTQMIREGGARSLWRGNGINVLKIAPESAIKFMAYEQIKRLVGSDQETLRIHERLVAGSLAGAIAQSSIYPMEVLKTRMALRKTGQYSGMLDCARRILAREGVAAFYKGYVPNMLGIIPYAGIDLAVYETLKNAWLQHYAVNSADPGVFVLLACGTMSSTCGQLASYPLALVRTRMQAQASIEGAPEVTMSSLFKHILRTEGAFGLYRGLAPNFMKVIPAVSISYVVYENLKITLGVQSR
UniProt Q9NYZ2: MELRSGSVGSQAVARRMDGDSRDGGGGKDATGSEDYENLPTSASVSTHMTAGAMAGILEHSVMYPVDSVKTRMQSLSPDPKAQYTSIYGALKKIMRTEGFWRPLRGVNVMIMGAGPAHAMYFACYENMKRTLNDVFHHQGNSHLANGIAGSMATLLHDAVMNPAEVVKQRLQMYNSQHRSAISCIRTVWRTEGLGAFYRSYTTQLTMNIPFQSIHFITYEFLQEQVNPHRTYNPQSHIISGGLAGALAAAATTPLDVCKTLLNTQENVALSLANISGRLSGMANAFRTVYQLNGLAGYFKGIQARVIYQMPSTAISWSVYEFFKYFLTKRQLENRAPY
UniProt P48029: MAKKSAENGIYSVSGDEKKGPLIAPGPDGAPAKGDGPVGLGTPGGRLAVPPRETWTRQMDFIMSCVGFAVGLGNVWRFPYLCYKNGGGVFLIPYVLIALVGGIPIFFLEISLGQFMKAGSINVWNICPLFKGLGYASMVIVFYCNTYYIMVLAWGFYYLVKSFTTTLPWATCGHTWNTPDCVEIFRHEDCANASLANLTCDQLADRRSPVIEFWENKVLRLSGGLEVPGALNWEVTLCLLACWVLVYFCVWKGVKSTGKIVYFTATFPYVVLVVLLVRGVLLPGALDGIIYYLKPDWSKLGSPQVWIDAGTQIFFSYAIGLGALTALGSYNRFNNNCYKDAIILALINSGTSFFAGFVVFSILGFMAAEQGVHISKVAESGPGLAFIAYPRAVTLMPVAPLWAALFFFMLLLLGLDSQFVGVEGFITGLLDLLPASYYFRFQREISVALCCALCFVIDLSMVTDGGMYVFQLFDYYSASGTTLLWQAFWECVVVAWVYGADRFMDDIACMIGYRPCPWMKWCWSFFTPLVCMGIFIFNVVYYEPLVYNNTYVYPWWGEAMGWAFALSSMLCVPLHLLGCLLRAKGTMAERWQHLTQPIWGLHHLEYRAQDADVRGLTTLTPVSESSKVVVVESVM
UniProt P02730: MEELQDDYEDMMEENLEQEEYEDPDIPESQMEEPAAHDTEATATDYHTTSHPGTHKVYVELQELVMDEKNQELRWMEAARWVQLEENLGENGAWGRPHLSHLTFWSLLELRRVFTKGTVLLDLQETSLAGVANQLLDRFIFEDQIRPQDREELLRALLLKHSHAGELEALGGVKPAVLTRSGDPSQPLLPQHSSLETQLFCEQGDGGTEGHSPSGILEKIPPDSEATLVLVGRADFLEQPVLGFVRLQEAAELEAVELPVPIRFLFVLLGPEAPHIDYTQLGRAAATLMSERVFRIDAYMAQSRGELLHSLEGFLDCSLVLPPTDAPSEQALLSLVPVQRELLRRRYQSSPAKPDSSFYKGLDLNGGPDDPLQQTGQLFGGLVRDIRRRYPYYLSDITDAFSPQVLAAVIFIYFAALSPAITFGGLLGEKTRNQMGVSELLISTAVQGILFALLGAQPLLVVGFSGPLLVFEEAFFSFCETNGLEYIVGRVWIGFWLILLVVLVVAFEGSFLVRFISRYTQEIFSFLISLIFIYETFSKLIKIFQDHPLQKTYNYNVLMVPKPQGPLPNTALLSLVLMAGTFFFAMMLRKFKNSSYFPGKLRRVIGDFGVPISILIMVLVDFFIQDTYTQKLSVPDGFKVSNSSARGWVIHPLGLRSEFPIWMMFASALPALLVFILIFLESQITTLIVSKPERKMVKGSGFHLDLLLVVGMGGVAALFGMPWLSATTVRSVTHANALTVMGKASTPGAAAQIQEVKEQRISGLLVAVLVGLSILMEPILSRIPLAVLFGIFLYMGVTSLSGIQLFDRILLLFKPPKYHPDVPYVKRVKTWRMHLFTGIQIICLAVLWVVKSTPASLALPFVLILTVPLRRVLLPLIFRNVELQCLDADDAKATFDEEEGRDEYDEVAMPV
UniProt O43772: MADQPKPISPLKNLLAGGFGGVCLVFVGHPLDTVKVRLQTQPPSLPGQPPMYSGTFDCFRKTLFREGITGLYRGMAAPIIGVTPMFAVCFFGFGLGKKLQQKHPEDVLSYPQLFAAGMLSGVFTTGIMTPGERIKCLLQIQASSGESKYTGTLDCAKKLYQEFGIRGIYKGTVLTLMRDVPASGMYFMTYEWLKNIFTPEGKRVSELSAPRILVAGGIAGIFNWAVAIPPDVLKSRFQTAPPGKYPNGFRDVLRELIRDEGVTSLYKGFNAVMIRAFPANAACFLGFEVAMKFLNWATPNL
UniProt Q9H2H9: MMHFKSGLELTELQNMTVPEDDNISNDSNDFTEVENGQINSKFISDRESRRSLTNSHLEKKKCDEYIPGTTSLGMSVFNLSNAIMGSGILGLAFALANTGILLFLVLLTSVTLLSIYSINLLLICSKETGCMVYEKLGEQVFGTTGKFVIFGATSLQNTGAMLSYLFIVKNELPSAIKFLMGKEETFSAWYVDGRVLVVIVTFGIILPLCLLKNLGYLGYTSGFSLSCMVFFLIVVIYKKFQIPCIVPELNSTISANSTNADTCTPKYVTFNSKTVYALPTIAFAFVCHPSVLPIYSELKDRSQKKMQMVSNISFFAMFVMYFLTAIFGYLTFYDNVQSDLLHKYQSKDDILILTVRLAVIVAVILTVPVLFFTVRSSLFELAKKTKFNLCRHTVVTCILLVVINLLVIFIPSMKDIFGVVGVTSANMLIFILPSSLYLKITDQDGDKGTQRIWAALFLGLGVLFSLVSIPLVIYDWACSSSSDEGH
UniProt P11169: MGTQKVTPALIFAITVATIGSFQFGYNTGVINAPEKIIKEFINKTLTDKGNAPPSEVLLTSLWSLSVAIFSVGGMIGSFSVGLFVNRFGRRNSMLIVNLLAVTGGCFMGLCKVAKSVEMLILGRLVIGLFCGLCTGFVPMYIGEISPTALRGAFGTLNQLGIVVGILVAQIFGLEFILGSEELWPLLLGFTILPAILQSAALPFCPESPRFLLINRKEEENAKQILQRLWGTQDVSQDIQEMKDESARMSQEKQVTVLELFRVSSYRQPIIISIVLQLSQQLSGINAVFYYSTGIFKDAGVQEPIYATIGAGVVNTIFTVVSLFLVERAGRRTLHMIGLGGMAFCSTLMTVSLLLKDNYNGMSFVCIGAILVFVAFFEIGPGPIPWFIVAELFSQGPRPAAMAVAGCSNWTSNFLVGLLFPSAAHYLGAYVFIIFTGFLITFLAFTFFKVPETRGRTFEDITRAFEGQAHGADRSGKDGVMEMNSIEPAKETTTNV
UniProt Q6NXT4: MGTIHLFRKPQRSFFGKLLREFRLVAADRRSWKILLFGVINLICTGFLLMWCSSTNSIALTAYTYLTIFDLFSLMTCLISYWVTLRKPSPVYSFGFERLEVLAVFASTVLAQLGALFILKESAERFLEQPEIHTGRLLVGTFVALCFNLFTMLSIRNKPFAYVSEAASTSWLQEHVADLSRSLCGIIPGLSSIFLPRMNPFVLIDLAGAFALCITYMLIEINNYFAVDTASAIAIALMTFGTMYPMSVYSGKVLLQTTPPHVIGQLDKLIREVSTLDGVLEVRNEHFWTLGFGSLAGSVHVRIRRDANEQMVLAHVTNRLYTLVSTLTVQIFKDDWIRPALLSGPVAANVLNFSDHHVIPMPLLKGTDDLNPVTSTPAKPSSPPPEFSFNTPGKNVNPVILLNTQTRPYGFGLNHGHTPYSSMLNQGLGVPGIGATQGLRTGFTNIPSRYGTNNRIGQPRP
UniProt Q96A29: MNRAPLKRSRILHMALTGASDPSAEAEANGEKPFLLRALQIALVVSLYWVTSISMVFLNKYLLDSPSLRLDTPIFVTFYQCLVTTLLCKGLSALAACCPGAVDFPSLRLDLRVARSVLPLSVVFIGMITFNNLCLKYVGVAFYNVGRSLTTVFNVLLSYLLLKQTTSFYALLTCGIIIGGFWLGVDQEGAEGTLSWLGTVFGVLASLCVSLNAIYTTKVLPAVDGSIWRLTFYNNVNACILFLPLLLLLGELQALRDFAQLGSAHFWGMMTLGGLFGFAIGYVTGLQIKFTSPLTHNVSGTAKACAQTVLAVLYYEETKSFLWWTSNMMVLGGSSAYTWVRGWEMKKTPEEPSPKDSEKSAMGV
UniProt Q9BQT8: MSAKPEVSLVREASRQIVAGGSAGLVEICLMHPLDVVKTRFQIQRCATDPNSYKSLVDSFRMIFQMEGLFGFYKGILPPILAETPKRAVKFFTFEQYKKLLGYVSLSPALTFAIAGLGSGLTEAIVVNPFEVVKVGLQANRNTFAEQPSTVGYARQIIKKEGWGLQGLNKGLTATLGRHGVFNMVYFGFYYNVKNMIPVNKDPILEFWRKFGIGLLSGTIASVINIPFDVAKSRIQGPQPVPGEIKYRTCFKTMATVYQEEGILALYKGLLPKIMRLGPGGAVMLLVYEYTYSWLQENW
UniProt Q9ULF5: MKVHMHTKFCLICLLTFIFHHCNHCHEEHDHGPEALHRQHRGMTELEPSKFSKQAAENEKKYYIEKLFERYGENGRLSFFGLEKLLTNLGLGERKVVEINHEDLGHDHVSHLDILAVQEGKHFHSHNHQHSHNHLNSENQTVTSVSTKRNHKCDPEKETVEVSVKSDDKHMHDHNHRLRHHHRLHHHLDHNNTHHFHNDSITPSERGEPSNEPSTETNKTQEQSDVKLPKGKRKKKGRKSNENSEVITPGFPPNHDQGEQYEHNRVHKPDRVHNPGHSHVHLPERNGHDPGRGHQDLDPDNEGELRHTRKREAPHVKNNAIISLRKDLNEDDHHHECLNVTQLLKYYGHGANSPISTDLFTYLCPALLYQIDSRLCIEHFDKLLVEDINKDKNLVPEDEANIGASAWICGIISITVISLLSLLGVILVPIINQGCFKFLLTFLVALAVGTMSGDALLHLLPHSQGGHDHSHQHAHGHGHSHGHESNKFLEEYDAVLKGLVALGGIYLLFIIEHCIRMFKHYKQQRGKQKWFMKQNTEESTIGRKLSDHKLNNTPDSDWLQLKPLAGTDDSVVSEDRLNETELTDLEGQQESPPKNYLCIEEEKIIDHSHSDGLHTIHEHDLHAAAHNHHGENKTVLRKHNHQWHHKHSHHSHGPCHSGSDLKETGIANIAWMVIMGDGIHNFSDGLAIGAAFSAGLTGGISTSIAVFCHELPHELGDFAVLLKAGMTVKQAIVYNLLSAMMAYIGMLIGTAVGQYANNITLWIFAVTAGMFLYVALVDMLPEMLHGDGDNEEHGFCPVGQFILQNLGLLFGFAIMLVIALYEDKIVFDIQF
UniProt P31641: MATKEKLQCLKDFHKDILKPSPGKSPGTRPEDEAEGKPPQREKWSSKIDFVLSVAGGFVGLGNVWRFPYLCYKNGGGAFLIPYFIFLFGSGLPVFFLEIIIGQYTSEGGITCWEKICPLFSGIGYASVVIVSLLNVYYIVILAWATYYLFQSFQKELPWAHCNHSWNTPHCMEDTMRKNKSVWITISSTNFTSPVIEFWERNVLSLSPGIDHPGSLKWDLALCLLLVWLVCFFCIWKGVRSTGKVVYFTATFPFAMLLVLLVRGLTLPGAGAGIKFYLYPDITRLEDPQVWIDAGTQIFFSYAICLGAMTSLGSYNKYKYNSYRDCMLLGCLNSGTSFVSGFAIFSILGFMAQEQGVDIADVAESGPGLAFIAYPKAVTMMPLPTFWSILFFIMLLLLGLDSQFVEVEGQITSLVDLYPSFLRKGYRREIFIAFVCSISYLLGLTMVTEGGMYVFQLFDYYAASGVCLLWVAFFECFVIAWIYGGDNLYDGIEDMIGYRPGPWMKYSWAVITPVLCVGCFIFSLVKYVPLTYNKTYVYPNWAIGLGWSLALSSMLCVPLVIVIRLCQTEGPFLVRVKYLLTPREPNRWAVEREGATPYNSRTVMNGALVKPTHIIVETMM
UniProt P12235: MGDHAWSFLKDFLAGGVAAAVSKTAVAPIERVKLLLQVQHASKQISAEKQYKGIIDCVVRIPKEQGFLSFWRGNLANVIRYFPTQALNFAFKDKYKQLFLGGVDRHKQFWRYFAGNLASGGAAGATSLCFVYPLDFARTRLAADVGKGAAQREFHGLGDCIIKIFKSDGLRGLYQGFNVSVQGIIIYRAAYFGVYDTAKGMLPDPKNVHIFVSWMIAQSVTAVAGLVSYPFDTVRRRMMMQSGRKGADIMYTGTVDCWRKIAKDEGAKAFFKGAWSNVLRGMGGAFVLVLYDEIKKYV

Experiments:
Experiment in all cases: log2 fold change, soluble protein after heating vs DMSO (PISA); higher = thermal stabilisation; K562 lysate, 10 uM; active = over 0.2 and 3.5 SD of the protein, either way, in both replicates (recomputed)
erlotinib = compound: C#Cc1cccc(Nc2ncnc3cc(OCCOC)c(OCCOC)cc23)c1 [erlotinib]
In short: (§1)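 K562 pellets were dounce-homogenised in PBS pH 7.4 with 1 mM MgCl2, and the crude extract at 1 mg/mL protein was treated with 10 μM compound for 30 min. Aliquots were heated for 3 min across 48°C-58°C, pooled, and brought to 0.5% NP-40 at 4°C; soluble protein was the supernatant after 21,000xg for 90 min. Soluble protein was quantified by TMTpro 16plex LC-MS/MS with channel sums equalised, and reported as log2 fold change in thermal stability against DMSO controls, with values from duplicates.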

[1] = compound: C/C(=N\NC(=O)C1=CC(=CC=C1)S(=O)(=O)N2CCOCC2)/C3=C(C=CC(=C3)Cl)O
In short: as §1

[2] = compound: C1=CC(=CC=C1C2=NC3=C(N2)C=C(C=C3)C(=O)N)OC4=CC=C(C=C4)Cl
In short: as §1

[3] = compound: C1=CC2=C(C=CC(=C2)/C=C\3/C(=O)NC(=NCC4=CC=CS4)S3)N=C1
In short: as §1

[4] = compound: C1=CC2=NC=CN=C2C=C1/C=C/3\C(=O)NC(=O)S3
In short: as §1

[5] = compound: C1=CC=C(C=C1)C2=NC(=C(N2)C3=CC=NC=C3)C4=CC(=C(C=C4)Cl)O
In short: as §1

[6] = compound: C1=CC=C2C(=C1)C3=NNC4=CC=CC(=C43)C2=O
In short: as §1

[7] = compound: C1CCN(C1)C(=O)NC2=CC=CC(=C2)NC3=NC=C(C(=N3)NCCC4=CN=CN4)Br
In short: as §1

[8] = compound: C1CN(CCC1(CC2=CC=C(C=C2)Cl)N)C3=NC=NC4=C3C=CN4
In short: as §1

IRAK-1-4 Inhibitor I = compound: C1COCCN1CCN2C3=CC=CC=C3N=C2NC(=O)C4=CC(=CC=C4)[N+](=O)[O-] [IRAK-1-4 Inhibitor I]
In short: as §1

Measured: log2 fold change

SLC39A14 (UniProt Q15043)
inactive: erlotinib -0.009 | [1] -0.019 | [2] -0.018 | [3] -0.018 | [4] 0 | [5] -0.008 | [6] -0.092 | [7] -0.014 | [8] 0.008 | IRAK-1-4 Inhibitor I -0.002

SLC25A25 isoform 3 (UniProt Q6KCM7)
inactive: erlotinib -0.029 | [1] 0.054 | [2] -0.038 | [3] 0.039 | [4] -0.003 | [5] -0.027 | [6] 0.01 | [7] 0.011 | [8] -0.026 | IRAK-1-4 Inhibitor I -0.041

SLC25A37 (UniProt Q9NYZ2)
inactive: erlotinib -0.006 | [1] 0.011 | [2] -0.076 | [3] -0.022 | [4] 0.066 | [5] 0.028 | [6] 0.007 | [7] -0.01 | [8] -0.014 | IRAK-1-4 Inhibitor I 0.162

SLC6A8 isoform 2 (UniProt P48029)
inactive: erlotinib 0.069 | [1] -0.026 | [2] 0.086 | [3] -0.012 | [4] 0.025 | [5] -0.009 | [6] 0.034 | [7] 0.001 | [8] 0.028 | IRAK-1-4 Inhibitor I 0.083

SLC4A1 (UniProt P02730)
inactive: erlotinib -0.118 | [1] 0.077 | [2] 0.083 | [3] 0.085 | [4] -0.007 | [5] -0.015 | [6] -0.027 | [7] 0.077 | [8] 0.013 | IRAK-1-4 Inhibitor I 0.132

SLC27A4 (UniProt Q6P1M0)
inactive: erlotinib 0.022 | [1] 0.01 | [2] -0.023 | [3] 0.052 | [4] 0.063 | [5] -0.009 | [6] 0.041 | [7] 0.015 | [8] 0.084 | IRAK-1-4 Inhibitor I -0.003

SLC29A2 (UniProt Q14542)
inactive: erlotinib -0.147 | [1] 0.016 | [2] -0.04 | [3] 0.013 | [4] -0.028 | [5] -0.033 | [6] 0.018 | [7] 0.018 | [8] 0.085 | IRAK-1-4 Inhibitor I 0.102

SLC25A20 (UniProt O43772)
inactive: erlotinib 0.033 | [1] 0.095 | [2] -0.006 | [3] 0.021 | [4] -0.038 | [5] -0.017 | [6] -0.015 | [7] 0.014 | [8] -0.06 | IRAK-1-4 Inhibitor I 0.054

SLC25A12 (UniProt O75746)
inactive: erlotinib 0.014 | [1] 0.045 | [2] 0.012 | [3] -0.011 | [4] -0.012 | [5] -0.006 | [6] 0.009 | [7] -0.008 | [8] 0.004 | IRAK-1-4 Inhibitor I -0.012

SLMAP isoform 3 (UniProt Q14BN4)
inactive: erlotinib 0.003 | [1] -0.029 | [2] -0.026 | [3] -0.014 | [4] -0.036 | [5] 0.05 | [6] -0.006 | [7] -0.048 | [8] -0.039 | IRAK-1-4 Inhibitor I -0.009

SLC38A1 (UniProt Q9H2H9)
inactive: erlotinib -0.01 | [1] -0.029 | [2] 0.056 | [3] 0.007 | [4] 0.01 | [5] 0.039 | [6] -0.061 | [7] -0.027 | [8] 0.026 | IRAK-1-4 Inhibitor I 0.053

SLC7A2 isoform 3 (UniProt P52569)
inactive: erlotinib 0.015 | [1] 0.217 | [2] 0.04 | [3] 0.148 | [4] -0.011 | [5] -0.034 | [6] 0.016 | [7] 0.167 | [8] -0.185 | IRAK-1-4 Inhibitor I 0.071

SMAD9 (UniProt O15198)
inactive: erlotinib 0.005 | [1] 0.048 | [2] -0.037 | [3] 0.007 | [4] 0.018 | [5] 0.053 | [6] 0.017 | [7] -0.048 | [8] -0.059 | IRAK-1-4 Inhibitor I 0

SLC7A11 (UniProt Q9UPY5)
inactive: erlotinib -0.079 | [1] 0.003 | [2] 0.086 | [3] -0.02 | [4] -0.019 | [5] -0.041 | [6] -0.036 | [7] 0.026 | [8] -0.009 | IRAK-1-4 Inhibitor I 0.025

SMAP2 (UniProt Q8WU79)
inactive: erlotinib -0.009 | [1] -0.018 | [2] 0.073 | [3] 0 | [4] 0.023 | [5] -0.2 | [6] 0.015 | [7] 0.037 | [8] 0.023 | IRAK-1-4 Inhibitor I 0.044

SLC37A4 isoform 2 (UniProt O43826)
inactive: erlotinib -0.015 | [1] -0.048 | [2] 0.065 | [3] 0.004 | [4] -0.049 | [5] 0.004 | [6] -0.058 | [7] -0.071 | [8] -0.058 | IRAK-1-4 Inhibitor I 0.011

SLC25A10 isoform 2 (UniProt Q9UBX3)
inactive: erlotinib 0 | [1] 0.03 | [2] 0.014 | [3] 0.01 | [4] 0.022 | [5] -0.016 | [6] 0.059 | [7] -0.013 | [8] -0.006 | IRAK-1-4 Inhibitor I 0.02

SLC45A4 isoform 3 (UniProt Q5BKX6)
inactive: erlotinib 0.027 | [1] -0.006 | [2] -0.014 | [3] -0.006 | [4] 0.015 | [5] 0.02 | [6] -0.086 | [7] 0.053 | [8] 0.039 | IRAK-1-4 Inhibitor I -0.012

SLK isoform 2 (UniProt Q9H2G2)
inactive: erlotinib 0.115 | [1] -0.018 | [2] -0.026 | [3] 0.064 | [4] 0.068 | [5] 0.081 | [6] 0.007 | [7] 0.045 | [8] 0.021 | IRAK-1-4 Inhibitor I 0.001

SLC25A24 (UniProt Q6NUK1)
inactive: erlotinib -0.006 | [1] -0.005 | [2] 0.024 | [3] 0.022 | [4] 0.007 | [5] -0.013 | [6] 0.012 | [7] -0.001 | [8] -0.016 | IRAK-1-4 Inhibitor I -0.021

SLC2A3 (UniProt P11169)
inactive: erlotinib -0.01 | [1] 0.038 | [2] -0.004 | [3] -0.001 | [4] 0.002 | [5] 0.036 | [6] -0.054 | [7] -0.013 | [8] 0.047 | IRAK-1-4 Inhibitor I 0.069

SLC30A6 isoform 2 (UniProt Q6NXT4)
inactive: erlotinib -0.014 | [1] 0.031 | [2] -0.012 | [3] -0.08 | [4] 0.069 | [5] 0.008 | [6] -0.212 | [7] -0.005 | [8] -0.059 | IRAK-1-4 Inhibitor I 0

Quoted at random: two records from the list.
SLC7A2 isoform 3 (UniProt P52569)
inactive: erlotinib 0.015 | [1] 0.217 | [2] 0.04 | [3] 0.148 | [4] -0.011 | [5] -0.034 | [6] 0.016 | [7] 0.167 | [8] -0.185 | IRAK-1-4 Inhibitor I 0.071

SLC25A10 isoform 2 (UniProt Q9UBX3)
inactive: erlotinib 0 | [1] 0.03 | [2] 0.014 | [3] 0.01 | [4] 0.022 | [5] -0.016 | [6] 0.059 | [7] -0.013 | [8] -0.006 | IRAK-1-4 Inhibitor I 0.02

(listing goes on)

SLC35C1 (UniProt Q96A29)
inactive: erlotinib -0.009 | [1] 0.084 | [2] -0.125 | [3] -0.018 | [4] -0.183 | [5] -0.068 | [6] 0.094 | [7] -0.147 | [8] 0.03 | IRAK-1-4 Inhibitor I -0.19

SLC25A21 (UniProt Q9BQT8)
inactive: erlotinib -0.009 | [1] 0.014 | [2] 0.047 | [3] 0 | [4] -0.026 | [5] -0.015 | [6] 0.028 | [7] -0.003 | [8] -0.002 | IRAK-1-4 Inhibitor I -0.001

SLC4A7 isoform 7 (UniProt Q9Y6M7)
inactive: erlotinib -0.035 | [1] -0.042 | [2] -0.004 | [3] -0.002 | [4] -0.005 | [5] -0.042 | [6] 0.041 | [7] 0.018 | [8] -0.007 | IRAK-1-4 Inhibitor I 0.039

SLC39A10 (UniProt Q9ULF5)
inactive: erlotinib -0.022 | [1] 0.101 | [2] 0.013 | [3] 0.082 | [4] -0.002 | [5] -0.029 | [6] 0.001 | [7] -0.049 | [8] 0.022 | IRAK-1-4 Inhibitor I -0.05

SLC6A6 (UniProt P31641)
inactive: erlotinib -0.016 | [1] -0.042 | [2] 0.023 | [3] -0.153 | [4] -0.013 | [5] -0.071 | [6] 0.031 | [7] -0.034 | [8] 0.042 | IRAK-1-4 Inhibitor I 0.03

SLC25A4 (UniProt P12235)
inactive: erlotinib -0.019 | [1] 0.051 | [2] 0.01 | [3] -0.026 | [4] 0.016 | [5] -0.028 | [6] 0.041 | [7] 0.001 | [8] -0.073 | IRAK-1-4 Inhibitor I 0.002

SLU7 (UniProt O95391)
inactive: erlotinib -0.02 | [1] -0.086 | [2] -0.021 | [3] 0.09 | [4] -0.026 | [5] 0.021 | [6] 0.036 | [7] -0.096 | [8] -0.041 | IRAK-1-4 Inhibitor I -0.07
